Results are given in words; binding and its absence hold for the method and conditions named. In cells and extracts the contact can be indirect. A yes stands for co-enrichment or nearness to the bait. Other partners may have been found. For some of these results: No binding means not detected with the bait.
T1: Prp45ΔCTR (residues 1-169) with biotin ligase BirA at the C-terminus (S. cerevisiae) (UniProt P28004)
T1 sequence: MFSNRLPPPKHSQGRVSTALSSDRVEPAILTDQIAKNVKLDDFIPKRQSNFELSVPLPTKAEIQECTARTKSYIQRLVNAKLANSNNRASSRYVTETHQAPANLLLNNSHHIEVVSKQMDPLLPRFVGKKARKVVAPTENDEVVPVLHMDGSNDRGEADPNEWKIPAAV

Protein sequences, listed by entry. Tags and fused reporters are not part of them.
UniProt P32639: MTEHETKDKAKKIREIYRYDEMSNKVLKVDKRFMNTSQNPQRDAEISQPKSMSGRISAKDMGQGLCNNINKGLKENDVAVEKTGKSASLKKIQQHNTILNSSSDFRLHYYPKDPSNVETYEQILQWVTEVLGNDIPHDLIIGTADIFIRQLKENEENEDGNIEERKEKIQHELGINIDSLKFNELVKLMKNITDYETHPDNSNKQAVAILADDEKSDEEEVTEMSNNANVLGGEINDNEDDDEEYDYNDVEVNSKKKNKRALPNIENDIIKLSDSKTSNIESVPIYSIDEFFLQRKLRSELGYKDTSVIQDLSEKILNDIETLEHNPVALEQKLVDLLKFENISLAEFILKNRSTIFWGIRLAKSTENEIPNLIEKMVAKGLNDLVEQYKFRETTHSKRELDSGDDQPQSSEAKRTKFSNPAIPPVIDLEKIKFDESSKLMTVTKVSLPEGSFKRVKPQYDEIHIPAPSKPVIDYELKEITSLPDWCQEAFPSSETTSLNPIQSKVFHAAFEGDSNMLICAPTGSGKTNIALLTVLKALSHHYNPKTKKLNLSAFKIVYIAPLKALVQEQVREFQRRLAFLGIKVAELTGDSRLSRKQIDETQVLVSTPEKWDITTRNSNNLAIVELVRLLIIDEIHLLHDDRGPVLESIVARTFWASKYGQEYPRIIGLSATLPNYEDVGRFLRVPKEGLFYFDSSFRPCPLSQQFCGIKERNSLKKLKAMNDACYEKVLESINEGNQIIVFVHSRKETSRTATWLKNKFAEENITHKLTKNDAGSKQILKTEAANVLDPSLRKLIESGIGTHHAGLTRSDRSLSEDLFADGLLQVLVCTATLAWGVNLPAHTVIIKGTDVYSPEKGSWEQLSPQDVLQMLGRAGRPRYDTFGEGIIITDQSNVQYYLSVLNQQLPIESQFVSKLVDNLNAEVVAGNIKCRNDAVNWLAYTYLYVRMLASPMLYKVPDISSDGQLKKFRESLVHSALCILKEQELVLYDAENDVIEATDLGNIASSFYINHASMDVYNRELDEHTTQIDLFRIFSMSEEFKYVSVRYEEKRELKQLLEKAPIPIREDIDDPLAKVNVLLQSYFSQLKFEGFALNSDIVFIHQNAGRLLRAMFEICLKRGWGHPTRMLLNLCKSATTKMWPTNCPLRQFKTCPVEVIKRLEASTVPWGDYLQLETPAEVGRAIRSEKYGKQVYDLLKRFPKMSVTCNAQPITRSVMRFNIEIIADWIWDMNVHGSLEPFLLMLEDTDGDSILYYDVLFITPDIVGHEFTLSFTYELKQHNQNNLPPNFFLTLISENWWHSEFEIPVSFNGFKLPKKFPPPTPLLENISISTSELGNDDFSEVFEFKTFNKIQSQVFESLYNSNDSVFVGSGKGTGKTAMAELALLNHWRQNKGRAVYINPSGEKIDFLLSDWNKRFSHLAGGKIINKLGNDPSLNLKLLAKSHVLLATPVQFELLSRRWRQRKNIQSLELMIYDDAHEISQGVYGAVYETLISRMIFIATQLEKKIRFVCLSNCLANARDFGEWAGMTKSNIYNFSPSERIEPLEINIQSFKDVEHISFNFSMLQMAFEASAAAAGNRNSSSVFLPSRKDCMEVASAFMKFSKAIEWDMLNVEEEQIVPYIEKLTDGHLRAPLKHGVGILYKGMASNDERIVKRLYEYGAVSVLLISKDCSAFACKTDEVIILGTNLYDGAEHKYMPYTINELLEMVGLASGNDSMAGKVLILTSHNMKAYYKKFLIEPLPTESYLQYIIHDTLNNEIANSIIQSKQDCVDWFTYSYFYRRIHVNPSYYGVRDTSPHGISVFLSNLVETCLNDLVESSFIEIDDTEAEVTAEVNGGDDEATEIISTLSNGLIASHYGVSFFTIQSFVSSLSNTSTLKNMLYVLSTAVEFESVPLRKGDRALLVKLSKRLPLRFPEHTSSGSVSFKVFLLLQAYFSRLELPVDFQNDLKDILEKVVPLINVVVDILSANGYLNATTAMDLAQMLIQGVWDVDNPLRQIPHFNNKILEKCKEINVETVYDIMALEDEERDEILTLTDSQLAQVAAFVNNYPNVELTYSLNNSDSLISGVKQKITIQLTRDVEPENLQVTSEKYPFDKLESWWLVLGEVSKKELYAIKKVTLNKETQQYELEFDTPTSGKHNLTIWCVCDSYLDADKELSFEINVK
UniProt Q12309: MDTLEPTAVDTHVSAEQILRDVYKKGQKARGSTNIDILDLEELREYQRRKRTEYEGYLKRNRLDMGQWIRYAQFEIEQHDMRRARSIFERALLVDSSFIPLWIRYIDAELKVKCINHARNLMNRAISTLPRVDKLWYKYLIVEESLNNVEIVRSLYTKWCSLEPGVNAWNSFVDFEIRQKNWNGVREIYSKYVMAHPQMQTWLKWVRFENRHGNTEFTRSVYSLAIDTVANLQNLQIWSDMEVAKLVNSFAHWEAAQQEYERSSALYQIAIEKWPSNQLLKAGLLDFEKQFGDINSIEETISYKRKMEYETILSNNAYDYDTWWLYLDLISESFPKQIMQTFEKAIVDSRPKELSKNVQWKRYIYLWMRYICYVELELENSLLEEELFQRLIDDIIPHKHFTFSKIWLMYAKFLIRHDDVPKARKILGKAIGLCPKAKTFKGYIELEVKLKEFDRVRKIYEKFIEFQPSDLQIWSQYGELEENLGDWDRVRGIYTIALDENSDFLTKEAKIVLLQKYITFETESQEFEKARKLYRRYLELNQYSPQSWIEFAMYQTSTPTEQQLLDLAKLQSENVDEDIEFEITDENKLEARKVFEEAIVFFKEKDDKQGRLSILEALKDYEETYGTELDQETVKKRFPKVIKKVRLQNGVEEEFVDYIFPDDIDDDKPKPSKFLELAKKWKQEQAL
UniProt P32523: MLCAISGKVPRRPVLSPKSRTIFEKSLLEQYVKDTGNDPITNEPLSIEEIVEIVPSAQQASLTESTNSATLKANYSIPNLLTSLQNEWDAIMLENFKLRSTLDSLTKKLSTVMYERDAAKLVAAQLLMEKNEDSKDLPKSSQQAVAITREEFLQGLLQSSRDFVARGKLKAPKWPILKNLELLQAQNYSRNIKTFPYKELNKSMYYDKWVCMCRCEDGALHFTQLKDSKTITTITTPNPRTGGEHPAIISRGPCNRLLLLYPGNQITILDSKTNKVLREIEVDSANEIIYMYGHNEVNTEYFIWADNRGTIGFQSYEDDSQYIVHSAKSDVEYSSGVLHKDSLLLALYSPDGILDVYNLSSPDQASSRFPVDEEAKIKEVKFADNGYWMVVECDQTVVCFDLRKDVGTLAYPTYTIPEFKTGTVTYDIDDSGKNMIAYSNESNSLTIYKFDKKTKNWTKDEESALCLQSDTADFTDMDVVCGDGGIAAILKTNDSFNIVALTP
UniProt Q12417: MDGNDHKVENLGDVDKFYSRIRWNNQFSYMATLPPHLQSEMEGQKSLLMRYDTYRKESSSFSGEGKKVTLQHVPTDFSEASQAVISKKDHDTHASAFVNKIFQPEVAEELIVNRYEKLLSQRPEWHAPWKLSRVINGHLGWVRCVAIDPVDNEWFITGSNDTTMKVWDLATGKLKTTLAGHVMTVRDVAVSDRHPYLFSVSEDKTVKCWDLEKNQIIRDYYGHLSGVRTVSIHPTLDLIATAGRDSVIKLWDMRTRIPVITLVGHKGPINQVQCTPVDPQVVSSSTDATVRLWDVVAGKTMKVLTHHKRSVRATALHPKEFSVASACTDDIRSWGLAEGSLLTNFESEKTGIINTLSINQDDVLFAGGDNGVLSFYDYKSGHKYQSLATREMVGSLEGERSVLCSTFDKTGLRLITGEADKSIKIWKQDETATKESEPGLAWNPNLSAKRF


Key:
[1] = molecular target: T1, Prp45ΔCTR (residues 1-169) with biotin ligase BirA at the C-terminus (S. cerevisiae); experiment: proximity labelling
[2] = molecular target: full-length Prp45 with biotin ligase BirA at the C-terminus (S. cerevisiae) (UniProt P28004); experiment: proximity labelling

Molecule | binding [1] | binding [2]
Brr2 (from UniProt P32639 1-2163) | binds | binds
Clf1 (from UniProt Q12309 1-687) | binds | binds
Prp19 (from UniProt P32523 1-503) |  | binds
Prp46 (from UniProt Q12417 1-451) | binds | binds
Spp2 (protein, UniProt Q02521 1-185) MSKFSLKLGSKTLKKNISKKTKKKNSLQKANLFDWDDAETASLSHKPQSKIKIQSIDKFDLDEESSSKKKLVIKLSENADTKKNDAPLVEYVTEKEYNEVPVEEFGDALLRGMGWESDSEQDSKGDKTQSRNKDVSNVSQIHPDGLGIGAKLNKAINVEEASFMPVVKIDKITGTKVDDDKKNKS | binds | binds
Bre1 (enzyme, UniProt Q07457 1-700) MTAEPATKKIKLELSDPSEPLTQSDVIAFQKEALFRCINRRRVDFEALRKQYELSRRECIDVSRKLANIMALIVTLARFIETFCTDANEKQLCREIAQGDETLIVQRSDSFMKLLTKYGKPNTTDSNTNSNASDHIQELTTELKNLRKSKEELFYENSQLTEEISALKEYYTNIIRKYDRDESFTIKRVFKEDKTDAVKELREDEKESNENNIKSGNKDSSAINGDNTSKKSEKGDELVQAEDERKEDAENEKLELDLKFSDLRAEINSLSSTIKDLENIRRENEEELIKTRSEVSNLKKQQIAAADQDPDFKSYDHESLLAKIQHLTEQNAELSEINSSFLSKFQVLAKEKEIYTKKVREEFQKSLDSLVEMNSSLEKDVVRIRTARDDLLSKIAILEAEKSKTEVLSDLQHAIDILKEQWTKIDQRSNDTKSSSTQDALIKEIQDLEKGFRELSDLTHKKYSEIINHESVISKLTVEKTKADQKYFAAMRSKDSILIEIKTLSKSLSKSNELILQLKDSDRLLQQKIGNLHKQLDLSQNNERRLIDSSKTETLKIIDLNNTSTKLKRSLEKLQEESNKSIADMTHLETKLNDTEIELKHFKQKASHLESKCEKLHDTLFRGNNKNKGSSDEALVEELANFRTLVYCSLCSKNWKNMAIKTCGHVFCENCCKERLAARMRKCPTCNKAFSSNDLLTVHL | no binding | 

Reference: paper doi:10.1101/2025.06.18.660225
